This note sets out measurements from PubChem BioAssay AID1508600 (Functional Genomics Laboratory (NCATS/FGL), 2020).

Screen size: about 53,000 sequences; about 3,700 (7%) were called active.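 Rule for the calls: active = gene knockdowns whose robust z-score for IL-1 alpha signal is at least 2 or at most -2, so actives lie on both sides; inactive = the rest.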 This is one part of the list.

The nature of this assay: Components of the Cytosolic LPS Sensing Pathway: Gene Identification via Genome-wide siRNA Screen.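 Note: robust z of the log signal after scaling to non-targeting control siRNA wells of the plate.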 Particulars: RAW264.7 macrophages, IL-1a HTRF, actives lie on both sides, screened at 100 nM (by protocol), cells primed 5 h with Pam3CSK4 first. The method, boiled down:
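RAW264.7 mouse macrophages reverse-transfected with single siRNAs (100 nM final) for 48h, primed with Pam3CSK4 for 5 hours, then transfected with LipidA for 24 hour. Supernatant IL-1a read by HTRF; values normalized to negative-control median, log-transformed robust z-scores.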
In the case of GGCACUGCACUUUAACAUATT against Serpinb7, the z-score is inactive: -0.402. On to CCACCAUUCUACAUAAUCATT against Abl1, for which the z-score was inactive: 1.28.

As to GGAGAACCACUACAUGCAATT against Bcl2l1, the z-score is inactive: 0.453. Next, CCCUGUUACGAAGUUUAACTT against Slc17a7: inactive: -1.27. Next, CCAAGGUCUAAAAAAAUAGTT against Adamts19: inactive: -0.907. GGAAAAAAGCCUCAUCGGATT against Wdr63: the z-score is inactive: 0.676.

As for GGAGAAAGUCAUCUUUGAUTT against Cdk5rap2, the z-score is inactive: -0.41.

Consider CGCCUCACGAUUUUGAUGATT against Cert1, for which the z-score was inactive: -0.768. The same measure for GGACGGGAUUGAGCCUAUGTT against Eif4e: inactive: 1.65; for GGUAUAGACUGGAAGUAUUTT against Dnajc3: inactive: 0.0873; for GGCUAUGAAAGUGACAAUCTT against Tsen15: active: -2.74. Next, GCCUAUUGAGAUCUACGGCTT against Elac1: inactive: 0.534. Next, GCUACAAGAAAUCUUGAUGTT against Tspan3: inactive: -0.0988.

Turning to GCAAAGCUGAUGCGAGCCUTT against Znhit3, the z-score is inactive: -0.333. The same measure for CCAAUGCUUGUGAUAAGCCTT against Krt33a: inactive: -0.105; for GGUCAGUGGAGCUCUCUAUTT against Fam234a: inactive: 1.43; for GGAGAAAACUUUCUGUGUGTT against Nrg1: inactive: -0.887. Take GGAUGAUUCUGGGUUACAGTT against Pwwp3a: the z-score was active: -2.26. The same measure for CCUCAUAGGAGAAUCUCCCTT against Plin5: inactive: -0.905. Regarding GCCAGUUGAAGGUGAUUAATT against Vmn1r35, the z-score was inactive: 0.886. Next, GCUUGGUGUGGAAUUUUUUTT against Ppp2r1a: inactive: 0.125.

As for GGAUCUGGAAUCACUGUUUTT against Lmnb2, the z-score is inactive: -0.451. Take CCACGGGCCAAAUGAAGACTT against Cd27: the z-score is inactive: -0.0262. The same measure for CCACCUUCCUAUGUUUGUATT against Ebf2: active: 3.73; for GGCUGUUCGCUGCUACGAATT against Kdm6a: inactive: 0.493. Next, GCCCAAAAGUAUAAACCAGTT against Peg12: inactive: 0.318; GGUCUCCCACCCAACGAUATT against Kbtbd2: inactive: 0.228.

Take GGAUUCAUCAUCUGUUACUTT against Rit1: the z-score was inactive: 0.529. Next, GGAUAUUCCUGGACUGACATT against Rps6: inactive: -0.996. For the sequence CGUGUACAUAGACCAUAUATT against Olfr453, the z-score was inactive: 0.199.

Regarding CCUCAAGAGAGCUACCGCATT against Tex48, the z-score was inactive: -0.898. The same measure for GCUCAUCAUGUGAAACUUUTT against Sar1b: inactive: 1.01. Next, GGCAGUACUGUCCAGAUGATT against Gsdma2: active: -2.12; “GAAAACAGAAAACCCACAGTT against Vmn1r190-ps”: inactive: 0.153. The same measure for CCAUCUACGUGGGACACAATT against Atp11a: inactive: 0.976; for CCAGUUUGGACAUUGGAAATT against Cyp26b1: inactive: 0.22. On to GGCAGUAGCCUUGUCUGUCTT against Prrx2, for which the z-score is inactive: -1.42. The same measure for CCUGGAGAGCAUCCUUCUUTT against Olfr382: inactive: 0.77. Next, CCACAACUAUGAGUCUAUUTT against Ech1: active: 2.05. Next, GCACUUUGCCAGAUAUAACTT against Glipr1: inactive: -1.16; GGAAACACUUGAACAAAGATT against Tph2: inactive: 0.518. As for GGUAAGUUAAAUGAUGACATT against Ccdc148, the z-score is inactive: -0.896. The same measure for CCUUCACUAUAUUCAACUUTT against Olfr479: inactive: 0.734. Next, GCCCAUGGGAUGUUCAACUTT against Nos1: inactive: -1.86; CCUCUGUUAUGGUAAUUCUTT against Olfr1323: inactive: -0.371. The same measure for GCUAAGGCUUGGAAUGACATT against Maged1: inactive: -0.105. As to GCCUCUGUUCUGACCAUAGTT against Gm128, the z-score is inactive: 0.505. Next, GGAUGUAGCACUCAAACUUTT against Usp6nl: inactive: -0.102; GCGAAAAACGGUCACCUAUTT against Tom1l2: inactive: 0.407; GGUCAUUGGCUUGAGUGCATT against Alppl2: inactive: -1.7. Next, CGGCAUCUAAUCAGUUUAATT against Farp1: inactive: 1.25; GGCGUAAUUUUGAUUCAGUTT against Fam53a: inactive: -0.126. The same measure for UUUCAAUCUGUAGCUUUCCTT against Krt86: inactive: 0.071; for GGACGUGUAGCUUGGAAUATT against Rnf26: active: 5.33.

Consider GGACAUCGUGCAAUACGCATT against Vangl1, for which the z-score is inactive: 0.754.

For the sequence GACCUACCAGAACAUCACUTT against Zfp825, the z-score is inactive: 0.241. Consider CCAAACGUGCCUCUAAGUUTT against Vkorc1, for which the z-score was inactive: 0.964. The same measure for CGUAAACAUAUAGGACUGGTT against Ssty1: inactive: 0.0955; for GGGAGGUCAACCUUUUAAUTT against Cyp2j5: inactive: -1.16. The same measure for CGUUUACCAGGAUAUCCAATT against Mmp27: inactive: 1.64; for GGAAAAUUUUGAAAGACCUTT against Atf1: inactive: -0.347. Regarding GCUCACAACAUGAGAGUCATT against Atp6v0e, the z-score is inactive: -0.539.

Turning to GGAAAAUUCCAUUCCAAAGTT against Rbm34, the z-score was inactive: -0.0226. Next, GGUACCAUACGACAUUAAUTT against Slc25a36: inactive: 0.275; GCCAGCAUAUGGACUACAATT against Ccnt2: inactive: -0.977. Next, GGAUCACAUCUAUGAGAAGTT against Fdx1: inactive: 0.516; GCAAUCGUAAGUAAAUAGATT against Gas1: inactive: -1.64; GCAAAUGUCUCGGAAAGAATT against Cdk11b: active: -2.18.
